Laboratory results: publication PMC4579843
These are yes or no findings as the source states them, for the method shown. In cells and extracts the contact can be indirect. Some binding calls cover weakened binding; strength is not graded here. Where a sequence is shown, tags or fusion partners need not be part of it.

Sequences of proteins named here, by UniProt entry; tags and fusion partners are left off.
UniProt P25694: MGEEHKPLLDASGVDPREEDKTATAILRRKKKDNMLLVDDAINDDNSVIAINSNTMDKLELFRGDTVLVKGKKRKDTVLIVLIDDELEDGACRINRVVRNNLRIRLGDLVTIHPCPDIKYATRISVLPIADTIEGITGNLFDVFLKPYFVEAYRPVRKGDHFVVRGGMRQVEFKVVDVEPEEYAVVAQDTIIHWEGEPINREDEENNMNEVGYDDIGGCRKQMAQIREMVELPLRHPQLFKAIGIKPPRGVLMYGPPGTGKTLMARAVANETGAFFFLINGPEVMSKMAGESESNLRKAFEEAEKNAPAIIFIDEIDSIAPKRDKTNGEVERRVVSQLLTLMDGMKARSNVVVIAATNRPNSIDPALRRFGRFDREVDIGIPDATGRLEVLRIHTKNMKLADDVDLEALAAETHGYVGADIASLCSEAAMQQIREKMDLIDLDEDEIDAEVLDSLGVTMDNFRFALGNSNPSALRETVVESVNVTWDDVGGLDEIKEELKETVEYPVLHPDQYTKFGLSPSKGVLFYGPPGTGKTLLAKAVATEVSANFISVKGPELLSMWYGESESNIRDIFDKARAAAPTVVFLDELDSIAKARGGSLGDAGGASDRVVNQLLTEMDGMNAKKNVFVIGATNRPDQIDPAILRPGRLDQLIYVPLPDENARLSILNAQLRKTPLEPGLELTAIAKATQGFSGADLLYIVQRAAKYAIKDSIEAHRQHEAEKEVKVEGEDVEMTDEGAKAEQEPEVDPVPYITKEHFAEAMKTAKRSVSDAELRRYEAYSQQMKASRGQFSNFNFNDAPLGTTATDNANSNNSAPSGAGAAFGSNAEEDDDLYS

Molecular target: Cdc48 (S. cerevisiae (endogenous in W303)) (UniProt P25694)
Test: co-IP; endogenous Cdc48 immunoprecipitated with goat polyclonal anti-Cdc48 antibodies (Abgent) and Dynabeads Protein G from extract of asynchronous WT cells expressing Est1-Myc9; TMG-50 (10 mM Tris-HCl pH 8.0, 50 mM NaCl) with 0.5% Tween-20, 4 °C; anti-Myc western blot; untagged cells as control

binding: binds
B1: Est1-Myc9 (protein, UniProt P17214 1-699)
chain: MDNEEVNEECMRLFFKNARAHLDKHLTSRLTCDENAYITFRCFLDGIHRKSTRFLEELLLKQENMYHNNNYERINDSVIPLVLKLLWLQIHEPTLQWFEHWFHDIMRLSNRRKFRVFRIFQKKMIQFFKITHRYYYDIIEHLCAKYDMNSVISNALFAKLNLMQYTDGLSTHEKIILNTSNPLTFSIVISLQRCVINLGSTHFYKTLLNKPSNKPKSVEGFEKSIRYLNIASLYLPAVGDTYFQRAKIYLITGKFSLYFFELVRGALVRIPSKCALNNLKDFILTPDFPERRRLMKKLAILVSKDLKGEKSFFEGQIVLQFLSIVEHTLVPQSWNASRASNCWLLKEHLQMAALKYHSGNINVILENLAATMGSFDLMFTTRKSKEQKNKLKYADLSERQVFFLDLSFDFIANIIDVVIKPSWQKNMEDFRYLAIIRLLMCWIKSYRSILQYTHRHRKFCTSFALLLNDLINSPLNCSGNIYSHRPKRSYLFREDIIFREFSCINFALTDFNDDYVYDSPDMINNIIGCPTLTKVLSPKEECVLRIRSIIFSGMKFLEKNDTGVIWNASKYKFDLISPNIKIKRQIALSEISSKINVKTQQERVVSSRKVEAKRDEQQRKRAGKIAVTELEKQFANVRRTKKLSPLPEKDGVSSELVKHAASRGRKTITGPLSSDFLSYPDEAIDADEDITVQVPDTPT
